Paper PMC4764573
These are yes or no findings as the source states them, for the method shown. Binding can be weak; no strength is given.

Chains of the proteins cited; added tags and fusions are not shown. Lines headed by an entry give the natural chain unless they say otherwise; changes in a name come on top.
UniProt B7ZR20: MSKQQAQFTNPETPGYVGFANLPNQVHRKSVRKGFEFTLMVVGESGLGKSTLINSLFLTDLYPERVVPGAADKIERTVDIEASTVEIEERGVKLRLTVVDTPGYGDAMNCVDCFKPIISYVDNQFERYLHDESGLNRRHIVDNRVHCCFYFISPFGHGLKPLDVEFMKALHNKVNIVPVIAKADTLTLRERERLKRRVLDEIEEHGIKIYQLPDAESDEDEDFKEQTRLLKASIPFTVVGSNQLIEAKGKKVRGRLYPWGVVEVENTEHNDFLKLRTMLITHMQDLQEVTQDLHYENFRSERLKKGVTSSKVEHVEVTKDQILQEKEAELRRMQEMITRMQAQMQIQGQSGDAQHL
UniProt Q6P5F9: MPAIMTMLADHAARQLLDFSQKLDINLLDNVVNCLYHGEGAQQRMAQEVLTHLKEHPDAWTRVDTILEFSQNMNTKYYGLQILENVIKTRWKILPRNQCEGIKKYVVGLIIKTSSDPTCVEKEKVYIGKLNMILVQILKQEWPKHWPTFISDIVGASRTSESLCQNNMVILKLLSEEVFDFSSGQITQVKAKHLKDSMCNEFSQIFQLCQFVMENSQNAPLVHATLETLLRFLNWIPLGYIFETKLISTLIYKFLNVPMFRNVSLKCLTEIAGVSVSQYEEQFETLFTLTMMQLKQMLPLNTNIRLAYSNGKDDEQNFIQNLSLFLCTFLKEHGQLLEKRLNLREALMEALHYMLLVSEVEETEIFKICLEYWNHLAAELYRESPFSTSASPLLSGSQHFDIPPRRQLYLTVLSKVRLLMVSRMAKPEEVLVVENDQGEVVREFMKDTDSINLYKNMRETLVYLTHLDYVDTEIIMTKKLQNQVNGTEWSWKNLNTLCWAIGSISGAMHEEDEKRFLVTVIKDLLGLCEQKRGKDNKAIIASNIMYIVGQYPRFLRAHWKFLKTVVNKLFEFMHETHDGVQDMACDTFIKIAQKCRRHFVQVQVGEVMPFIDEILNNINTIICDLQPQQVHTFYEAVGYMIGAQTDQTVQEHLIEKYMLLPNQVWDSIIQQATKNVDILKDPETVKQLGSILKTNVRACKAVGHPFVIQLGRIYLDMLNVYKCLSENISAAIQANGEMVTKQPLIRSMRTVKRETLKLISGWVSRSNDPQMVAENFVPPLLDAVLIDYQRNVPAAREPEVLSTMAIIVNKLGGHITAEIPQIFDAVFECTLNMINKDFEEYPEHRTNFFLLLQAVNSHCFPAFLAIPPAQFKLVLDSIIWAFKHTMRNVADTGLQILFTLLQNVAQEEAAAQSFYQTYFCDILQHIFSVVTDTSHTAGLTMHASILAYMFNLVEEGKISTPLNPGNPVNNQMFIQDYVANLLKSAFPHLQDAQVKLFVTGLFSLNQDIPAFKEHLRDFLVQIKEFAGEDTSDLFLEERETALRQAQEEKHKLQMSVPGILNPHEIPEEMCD

Target: H14-ZZ-Sumo tagged Septin-2 (Xenopus) (UniProt B7ZR20)
Test: pull-down; 250 pmoles His14-ZZ-bdSUMO tagged candidate on 20 μl anti-ZZ beads; 300 pmoles mmCRM1 with or without 1500 pmoles RanGTP (hsRanQ69L^5-180) in 500 µl; 3 hr at 4°C; elution by bdSENP1 protease; SDS-PAGE and Coomassie-staining; both purified

In the case of “mmCRM1 (mouse CRM1), in solution in the direct binding assay (from UniProt Q6P5F9 1-1071)”, the binding was “binds”.
